Laboratory results as given in the supplement of paper PMC12819154, “High-throughput peptide-centric local stability assay extends protein–ligand identification to membrane proteins, tissues and bacteria” (Nature Structural & Molecular Biology, 2025).
The list shows a part of the results. Most entries show no effect beyond the scatter of the controls.

The chains behind the UniProt entries cited, without tags or fusion partners. Where a name states a change or a piece, a line headed by the entry shows the natural chain unless it says otherwise.
UniProt O60573: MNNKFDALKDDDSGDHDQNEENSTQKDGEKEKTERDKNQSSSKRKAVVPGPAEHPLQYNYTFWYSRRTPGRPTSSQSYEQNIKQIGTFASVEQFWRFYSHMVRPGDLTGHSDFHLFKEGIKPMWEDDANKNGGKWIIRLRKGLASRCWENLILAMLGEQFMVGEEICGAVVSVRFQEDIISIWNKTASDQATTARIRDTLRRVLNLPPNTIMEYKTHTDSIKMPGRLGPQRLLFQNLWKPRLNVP
UniProt O75330: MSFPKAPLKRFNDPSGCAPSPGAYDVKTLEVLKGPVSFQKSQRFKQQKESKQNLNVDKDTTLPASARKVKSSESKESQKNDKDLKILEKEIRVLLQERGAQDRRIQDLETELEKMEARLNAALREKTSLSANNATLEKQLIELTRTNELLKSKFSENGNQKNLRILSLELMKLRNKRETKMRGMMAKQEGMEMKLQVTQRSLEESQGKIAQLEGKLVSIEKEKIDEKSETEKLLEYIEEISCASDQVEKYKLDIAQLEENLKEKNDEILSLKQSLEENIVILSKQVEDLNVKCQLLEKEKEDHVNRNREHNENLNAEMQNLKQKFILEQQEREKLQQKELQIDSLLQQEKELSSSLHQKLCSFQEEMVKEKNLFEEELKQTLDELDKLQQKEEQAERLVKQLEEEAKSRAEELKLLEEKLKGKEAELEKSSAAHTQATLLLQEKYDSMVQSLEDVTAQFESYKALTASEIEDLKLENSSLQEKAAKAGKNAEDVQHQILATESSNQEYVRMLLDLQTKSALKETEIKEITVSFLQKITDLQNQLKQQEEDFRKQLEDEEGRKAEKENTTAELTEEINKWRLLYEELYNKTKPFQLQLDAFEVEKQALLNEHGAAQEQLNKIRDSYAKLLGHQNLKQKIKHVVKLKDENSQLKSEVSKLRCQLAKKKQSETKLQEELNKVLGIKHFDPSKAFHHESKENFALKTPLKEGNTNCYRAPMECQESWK
UniProt O43741: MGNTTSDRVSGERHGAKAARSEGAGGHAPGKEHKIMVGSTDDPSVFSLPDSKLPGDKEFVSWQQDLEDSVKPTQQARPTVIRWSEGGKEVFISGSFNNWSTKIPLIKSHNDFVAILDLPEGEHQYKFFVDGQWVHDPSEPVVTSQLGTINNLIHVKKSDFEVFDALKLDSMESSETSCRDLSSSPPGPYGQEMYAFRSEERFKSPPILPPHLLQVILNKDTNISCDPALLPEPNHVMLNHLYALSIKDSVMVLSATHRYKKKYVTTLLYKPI
UniProt O75348, whole entry: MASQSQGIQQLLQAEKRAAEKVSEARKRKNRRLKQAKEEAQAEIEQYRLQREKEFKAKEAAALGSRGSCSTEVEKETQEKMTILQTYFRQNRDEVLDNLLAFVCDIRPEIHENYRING
UniProt O43435: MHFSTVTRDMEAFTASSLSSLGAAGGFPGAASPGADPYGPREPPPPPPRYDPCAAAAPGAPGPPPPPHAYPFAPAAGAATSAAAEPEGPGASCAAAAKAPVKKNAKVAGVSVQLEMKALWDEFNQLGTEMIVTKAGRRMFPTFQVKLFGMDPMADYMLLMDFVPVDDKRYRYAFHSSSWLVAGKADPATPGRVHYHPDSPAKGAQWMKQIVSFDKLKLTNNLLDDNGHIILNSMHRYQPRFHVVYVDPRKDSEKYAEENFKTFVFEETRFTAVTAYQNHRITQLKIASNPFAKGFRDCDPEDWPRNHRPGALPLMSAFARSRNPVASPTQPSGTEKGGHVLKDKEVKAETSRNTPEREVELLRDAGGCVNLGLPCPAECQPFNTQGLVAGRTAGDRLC
UniProt O43837: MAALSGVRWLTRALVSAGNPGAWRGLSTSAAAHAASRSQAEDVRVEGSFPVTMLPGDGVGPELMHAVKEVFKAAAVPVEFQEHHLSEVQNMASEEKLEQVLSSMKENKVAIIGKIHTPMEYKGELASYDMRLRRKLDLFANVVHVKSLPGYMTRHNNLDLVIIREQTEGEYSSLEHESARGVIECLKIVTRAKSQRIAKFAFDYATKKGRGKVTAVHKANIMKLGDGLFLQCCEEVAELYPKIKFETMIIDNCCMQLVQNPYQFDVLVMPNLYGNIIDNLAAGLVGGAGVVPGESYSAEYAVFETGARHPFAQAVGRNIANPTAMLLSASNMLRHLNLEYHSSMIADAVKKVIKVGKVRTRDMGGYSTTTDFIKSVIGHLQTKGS
UniProt O75344: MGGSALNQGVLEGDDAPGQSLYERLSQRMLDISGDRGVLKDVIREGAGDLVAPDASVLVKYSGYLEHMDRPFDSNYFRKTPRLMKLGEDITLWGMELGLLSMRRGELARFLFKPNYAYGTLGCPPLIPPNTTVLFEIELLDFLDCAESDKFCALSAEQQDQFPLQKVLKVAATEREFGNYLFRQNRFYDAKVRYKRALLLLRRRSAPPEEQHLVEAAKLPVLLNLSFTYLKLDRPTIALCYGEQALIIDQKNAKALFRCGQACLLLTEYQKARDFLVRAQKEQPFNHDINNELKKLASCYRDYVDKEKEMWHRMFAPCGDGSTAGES
UniProt O43709: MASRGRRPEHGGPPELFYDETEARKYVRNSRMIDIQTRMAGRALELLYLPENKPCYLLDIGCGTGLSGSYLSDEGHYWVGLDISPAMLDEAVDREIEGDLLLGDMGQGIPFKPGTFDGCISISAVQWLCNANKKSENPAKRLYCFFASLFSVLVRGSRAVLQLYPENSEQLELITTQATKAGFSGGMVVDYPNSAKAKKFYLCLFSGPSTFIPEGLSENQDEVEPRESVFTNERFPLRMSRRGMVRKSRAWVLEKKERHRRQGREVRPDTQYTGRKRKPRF
UniProt O43920, whole entry: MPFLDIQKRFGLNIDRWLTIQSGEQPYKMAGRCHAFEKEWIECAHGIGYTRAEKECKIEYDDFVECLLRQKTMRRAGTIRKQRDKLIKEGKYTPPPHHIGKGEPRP
UniProt O75381, whole entry: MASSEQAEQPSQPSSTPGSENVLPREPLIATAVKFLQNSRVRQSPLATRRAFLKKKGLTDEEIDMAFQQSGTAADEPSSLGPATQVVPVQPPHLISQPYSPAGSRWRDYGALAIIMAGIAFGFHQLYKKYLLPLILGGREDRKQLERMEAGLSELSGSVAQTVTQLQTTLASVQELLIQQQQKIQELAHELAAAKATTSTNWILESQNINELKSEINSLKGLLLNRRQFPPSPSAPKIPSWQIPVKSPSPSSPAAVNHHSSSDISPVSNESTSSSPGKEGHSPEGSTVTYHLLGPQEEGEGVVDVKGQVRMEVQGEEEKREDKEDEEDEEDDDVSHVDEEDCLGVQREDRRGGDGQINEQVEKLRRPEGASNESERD
UniProt O60664: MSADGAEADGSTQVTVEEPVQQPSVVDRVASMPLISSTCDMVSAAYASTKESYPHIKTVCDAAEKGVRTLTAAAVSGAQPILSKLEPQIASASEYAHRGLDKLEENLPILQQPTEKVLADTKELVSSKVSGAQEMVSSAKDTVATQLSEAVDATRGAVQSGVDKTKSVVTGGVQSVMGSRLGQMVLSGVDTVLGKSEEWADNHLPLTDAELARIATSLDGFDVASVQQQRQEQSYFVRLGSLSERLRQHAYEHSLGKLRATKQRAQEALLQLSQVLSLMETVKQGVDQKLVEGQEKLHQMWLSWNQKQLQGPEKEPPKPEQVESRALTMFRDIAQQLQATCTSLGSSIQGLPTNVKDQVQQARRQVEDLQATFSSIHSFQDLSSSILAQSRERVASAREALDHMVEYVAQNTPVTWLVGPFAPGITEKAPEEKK
UniProt O60779: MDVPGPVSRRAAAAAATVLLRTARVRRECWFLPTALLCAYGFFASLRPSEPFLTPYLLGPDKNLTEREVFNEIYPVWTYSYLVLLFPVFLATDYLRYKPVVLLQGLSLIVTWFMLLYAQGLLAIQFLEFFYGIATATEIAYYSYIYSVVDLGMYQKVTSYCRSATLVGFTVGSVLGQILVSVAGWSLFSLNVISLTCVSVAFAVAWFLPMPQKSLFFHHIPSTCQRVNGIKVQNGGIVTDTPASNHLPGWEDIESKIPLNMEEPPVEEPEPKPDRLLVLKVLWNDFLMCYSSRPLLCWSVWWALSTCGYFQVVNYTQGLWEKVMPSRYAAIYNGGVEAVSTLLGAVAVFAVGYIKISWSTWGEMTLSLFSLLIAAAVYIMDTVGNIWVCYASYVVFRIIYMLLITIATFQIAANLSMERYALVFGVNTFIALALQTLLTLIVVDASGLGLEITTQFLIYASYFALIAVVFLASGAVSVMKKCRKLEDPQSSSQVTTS
UniProt O60282: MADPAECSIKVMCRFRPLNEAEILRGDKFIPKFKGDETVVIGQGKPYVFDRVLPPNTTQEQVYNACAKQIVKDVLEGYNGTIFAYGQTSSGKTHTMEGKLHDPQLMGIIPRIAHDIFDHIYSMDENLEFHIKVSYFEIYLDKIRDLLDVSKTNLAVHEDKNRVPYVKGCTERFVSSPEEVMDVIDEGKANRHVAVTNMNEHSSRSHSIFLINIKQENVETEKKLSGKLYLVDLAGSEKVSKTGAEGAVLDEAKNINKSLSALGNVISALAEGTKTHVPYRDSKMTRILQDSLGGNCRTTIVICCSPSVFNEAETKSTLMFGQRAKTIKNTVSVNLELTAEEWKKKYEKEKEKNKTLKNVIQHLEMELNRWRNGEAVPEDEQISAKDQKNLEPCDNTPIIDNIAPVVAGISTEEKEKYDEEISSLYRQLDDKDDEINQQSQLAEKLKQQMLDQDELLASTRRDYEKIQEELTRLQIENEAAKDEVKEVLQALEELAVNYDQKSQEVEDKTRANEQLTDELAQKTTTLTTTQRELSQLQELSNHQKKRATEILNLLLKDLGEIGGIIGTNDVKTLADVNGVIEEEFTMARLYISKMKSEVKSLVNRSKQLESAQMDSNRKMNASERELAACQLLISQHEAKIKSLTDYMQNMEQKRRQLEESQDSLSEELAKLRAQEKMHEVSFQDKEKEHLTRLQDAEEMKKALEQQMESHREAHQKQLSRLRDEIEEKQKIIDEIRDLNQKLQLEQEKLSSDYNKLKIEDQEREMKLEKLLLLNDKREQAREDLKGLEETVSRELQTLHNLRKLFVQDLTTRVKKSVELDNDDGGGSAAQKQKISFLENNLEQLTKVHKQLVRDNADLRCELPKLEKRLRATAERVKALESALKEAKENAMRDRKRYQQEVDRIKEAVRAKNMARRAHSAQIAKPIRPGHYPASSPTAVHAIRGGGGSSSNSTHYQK
UniProt O75379: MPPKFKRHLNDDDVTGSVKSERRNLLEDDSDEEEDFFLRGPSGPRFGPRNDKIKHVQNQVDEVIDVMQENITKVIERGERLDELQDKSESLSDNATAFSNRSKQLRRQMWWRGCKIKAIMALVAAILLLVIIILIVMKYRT
UniProt O60343: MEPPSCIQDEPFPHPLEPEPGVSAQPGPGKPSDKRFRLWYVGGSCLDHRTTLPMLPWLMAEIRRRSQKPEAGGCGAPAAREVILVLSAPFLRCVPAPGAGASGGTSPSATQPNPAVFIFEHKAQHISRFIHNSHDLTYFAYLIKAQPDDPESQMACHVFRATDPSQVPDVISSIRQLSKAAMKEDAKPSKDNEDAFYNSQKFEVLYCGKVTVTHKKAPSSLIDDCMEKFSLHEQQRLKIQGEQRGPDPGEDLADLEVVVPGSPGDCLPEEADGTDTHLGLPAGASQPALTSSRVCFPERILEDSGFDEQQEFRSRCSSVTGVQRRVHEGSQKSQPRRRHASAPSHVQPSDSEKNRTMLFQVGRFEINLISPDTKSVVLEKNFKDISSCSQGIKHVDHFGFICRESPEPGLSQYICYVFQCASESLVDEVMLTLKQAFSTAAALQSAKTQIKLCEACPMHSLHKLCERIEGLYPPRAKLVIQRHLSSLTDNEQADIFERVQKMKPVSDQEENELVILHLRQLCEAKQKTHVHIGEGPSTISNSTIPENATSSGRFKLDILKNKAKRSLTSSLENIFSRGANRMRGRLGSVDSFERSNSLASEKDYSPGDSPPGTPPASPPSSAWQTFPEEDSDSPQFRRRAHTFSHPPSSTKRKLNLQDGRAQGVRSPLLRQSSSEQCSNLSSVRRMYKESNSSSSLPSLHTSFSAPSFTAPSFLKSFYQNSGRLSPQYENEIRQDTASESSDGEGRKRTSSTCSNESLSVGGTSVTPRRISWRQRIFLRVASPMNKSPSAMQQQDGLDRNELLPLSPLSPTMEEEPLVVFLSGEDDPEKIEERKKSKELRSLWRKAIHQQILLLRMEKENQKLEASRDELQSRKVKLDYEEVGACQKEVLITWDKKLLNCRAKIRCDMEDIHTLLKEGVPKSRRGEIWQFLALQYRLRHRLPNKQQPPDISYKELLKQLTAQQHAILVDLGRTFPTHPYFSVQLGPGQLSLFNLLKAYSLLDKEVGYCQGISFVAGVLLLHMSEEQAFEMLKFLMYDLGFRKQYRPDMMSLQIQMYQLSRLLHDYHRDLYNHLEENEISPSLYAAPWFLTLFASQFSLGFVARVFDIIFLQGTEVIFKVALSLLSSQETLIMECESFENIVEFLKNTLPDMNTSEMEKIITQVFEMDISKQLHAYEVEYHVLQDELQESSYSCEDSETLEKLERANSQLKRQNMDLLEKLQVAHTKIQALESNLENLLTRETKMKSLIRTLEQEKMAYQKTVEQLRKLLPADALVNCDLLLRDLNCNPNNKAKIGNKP

Each target was assayed with Cc1nc(Nc2ncc(C(=O)Nc3c(C)cccc3Cl)s2)cc(N2CCN(CCO)CC2)n1 [dasatinib] (assay: log2 fold change of tryptic peptide abundance, ligand vs vehicle (limited proteolysis) (log2 ratio); higher = more trypsin-susceptible (destabilized)). Conditions: ligand concentration: 5 uM; sample: K562 cleared lysate.

Target	log2 fold change
EIF4E2 (peptide sequence: LLFQNLWK, peptide start residue: 232) (UniProt O60573)	-0.499
DNAJA2 (peptide sequence: VSLEDLYNGKTTK, peptide start residue: 122) (UniProt O60884)	0.479
TRIAP1 (peptide sequence: EYDQCFNR, peptide start residue: 14) (UniProt O43715)	0.246
UniProt O43187 (peptide sequence: ETACSSPGSIER, peptide start residue: 241)	-0.399
CCDC22 (peptide sequence: MEEADRILIHSLR, peptide start residue: 1) (UniProt O60826)	0.596
HMMR (peptide sequence: ENTTAELTEEINKWR, peptide start residue: 566) (UniProt O75330)	-0.262
CEP104 (peptide sequence: TIFEGFAK, peptide start residue: 663) (UniProt O60308)	-0.181
PRKAB2 (peptide sequence: SEGAGGHAPGKEHK, peptide start residue: 21) (UniProt O43741)	-0.294
ATP6V1G1 (peptide sequence: LKQAKEEAQAEIEQYR, peptide start residue: 33) (UniProt O75348)	0.374
TBX1 (peptide sequence: GFRDCDPEDWPR, peptide start residue: 294) (UniProt O43435)	-0.0845
UniProt O60224 (peptide sequence: EVPEASGPQNDGK, peptide start residue: 125)	-0.232
ZW10 (peptide sequence: VEEIKGEVCNMISK, peptide start residue: 31) (UniProt O43264)	0.416
SRGAP2 (peptide sequence: MKEYLEGR, peptide start residue: 454) (UniProt O75044)	0.105
UniProt O43504 (peptide sequence: GTLSDEHAGVISVLAQQAAK, peptide start residue: 35)	-0.0148
IDH3B (peptide sequence: FAFDYATKK, peptide start residue: 200) (UniProt O43837)	0.127
UniProt O75344 (peptide sequence: DYVDKEK, peptide start residue: 117)	0.52
DYNC1LI2 (peptide sequence: KLVHDKELAAEDEQVFLMK, peptide start residue: 347) (UniProt O43237)	0.519
KIF1C (peptide sequence: AHIDKLTGILQEVK, peptide start residue: 835) (UniProt O43896)	-0.396
UniProt O43709 (peptide sequence: ESVFTNER, peptide start residue: 227)	0.12

Target	log2 fold change
UniProt O43307 (peptide sequence: KLEEKIR, peptide start residue: 409)	-0.216
NDUFS5 (peptide sequence: YTPPPHHIGK, peptide start residue: 92) (UniProt O43920)	-0.102
GIGYF1 (peptide sequence: SSPSLSDSYSHLSGRPIR, peptide start residue: 862) (UniProt O75420)	-0.186
CPNE3 (peptide sequence: SPLGEVAIR, peptide start residue: 476) (UniProt O75131)	-0.178
UniProt O43865 (peptide sequence: TPELTWER, peptide start residue: 411)	0.199
PRPF3 (peptide sequence: EVFGDDSEISKESSGVKK, peptide start residue: 93) (UniProt O43395)	0.132
PEX14 (peptide sequence: IPSWQIPVK, peptide start residue: 238) (UniProt O75381)	0.513
TACC1 (peptide sequence: IHAEEKLDK, peptide start residue: 735) (UniProt O75410)	-0.643
UniProt O60664 (peptide sequence: IATSLDGFDVASVQQQR, peptide start residue: 214)	0.498
SART1 (peptide sequence: EKDLAEKR, peptide start residue: 213) (UniProt O43290)	-0.342
SLC19A2 (peptide sequence: AAAAAATVLLR, peptide start residue: 11) (UniProt O60779)	-0.132
UniProt O60282 (peptide sequence: ILQDSLGGNCR, peptide start residue: 285)	-0.209
PTCD1 (peptide sequence: EADDGCALGGR, peptide start residue: 690) (UniProt O75127)	-0.376
PJA2 (peptide sequence: SSQDEMVSTK, peptide start residue: 259) (UniProt O43164)	-0.252
UniProt O75161 (peptide sequence: KPPTSPSSPPAPVPR, peptide start residue: 474)	0.585
VAMP4 (peptide sequence: HLNDDDVTGSVK, peptide start residue: 8) (UniProt O75379)	0.114
TBC1D4 (peptide sequence: HASAPSHVQPSDSEK, peptide start residue: 339) (UniProt O60343)	0.456
HTRA2 (peptide sequence: VTAGISFAIPSDR, peptide start residue: 325) (UniProt O43464)	0.179
